Assay: Binding of sugars to boronic acid immobilized resin, concentration left in solution measured with a commercial glucose sensor
Conditions: 10 mL solution mixed with 1 mL boronic acid resin, room temperature, 50 min, decanted
Experimental: After the FDG has been synthesized, it can be purified by passing the FDG through a boronic acid resin column. […] Boronic acid derivatives are known to bind glucose and other carbohydrates at pH 8.5 and release them at pH 4. As shown by the results in Table 1, boronic acid resins can be used to selectively purify FDG from a FDG/glucose mixture, based on preferential binding of FDG.
Glucose (0.0141 g) was dissolved in a solution containing 25 mL of saline and 3 mL of 1 M NaHCO3. The solution (10 mL) was mixed with 1 mL of the Boronic acid immobilized resin (Pierce 20244) and incubated with mixing in a 15 mL centrifuge tube at room temperature for 50 min. The solution was decanted and the glucose concentration was measured with a commercial glucose sensor.
The cold 2-fluoro-2-deoxy-D-glucose, 0.0161 g was dissolved in a solution containing 28 mL of saline and 3.4 mL of 1 M NaHCO3. The FDG solution was treated in the same manner as the glucose solution.

With `O=C[C@H](F)[C@@H](O)[C@H](O)[C@H](O)CO` [FDG, 2-Fluoro-2-Deoxy-D-Glucose] the “After Resin (concentration in solution)” value was 0.06 g/L.
